Tested on: BLNG_01264 (α-fucosidase)
Assay: LC-MS of digested HMO pool
Format: biochemical, Bifidobacterium longum subsp. longum
Details: reduced (alditol) HMO pool; pH 7.0, 45 °C, 1 and 3 h

| Substance | % removed |
| --- | --- |
| Fuca1-2Galβ1-4Glcβ-Sp0 | ~ 100% |
| LDFT | ~ 100% |

Source: article PMC5069460, “A novel gene cluster allows preferential utilization of fucosylated milk oligosaccharides in Bifidobacterium longum subsp. longum SC596” (Scientific Reports, 2016)
